Primary screen of a compound library

Amino acid sequences for entries named in this document (tags omitted).
UniProt E9BF75, entry or part of it: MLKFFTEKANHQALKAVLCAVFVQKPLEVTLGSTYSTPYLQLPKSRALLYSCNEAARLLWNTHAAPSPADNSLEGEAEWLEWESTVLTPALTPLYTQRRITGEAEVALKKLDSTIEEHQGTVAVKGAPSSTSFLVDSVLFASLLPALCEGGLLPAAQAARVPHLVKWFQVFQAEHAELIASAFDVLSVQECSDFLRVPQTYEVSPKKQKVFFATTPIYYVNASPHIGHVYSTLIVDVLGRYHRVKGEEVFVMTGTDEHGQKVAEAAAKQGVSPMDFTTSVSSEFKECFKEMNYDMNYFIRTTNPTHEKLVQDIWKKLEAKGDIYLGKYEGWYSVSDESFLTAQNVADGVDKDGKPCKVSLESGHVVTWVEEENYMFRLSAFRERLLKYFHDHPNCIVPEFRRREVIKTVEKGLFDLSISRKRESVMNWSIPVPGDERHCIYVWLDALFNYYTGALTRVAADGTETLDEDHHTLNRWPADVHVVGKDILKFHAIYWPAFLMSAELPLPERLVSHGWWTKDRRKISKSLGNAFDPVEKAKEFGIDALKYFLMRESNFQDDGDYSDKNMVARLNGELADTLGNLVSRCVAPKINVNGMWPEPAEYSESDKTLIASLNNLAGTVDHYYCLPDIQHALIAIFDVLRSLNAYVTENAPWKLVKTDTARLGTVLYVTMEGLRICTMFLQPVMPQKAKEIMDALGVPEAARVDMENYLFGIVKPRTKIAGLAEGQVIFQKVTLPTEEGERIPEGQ

Mtb heat-shock: 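Assay on Mycobacterium tuberculosis, filed only as a heat shock assay from Cornell; the read-out is not stated. The concentration is filed as 10 mM, unlikely as a test dose, so the dose is not known. Direction is inferred from retests: higher values go with stronger inhibition. Of about 69,000 compounds tested this way, about 930 (1.4%) reached 50% or more in at least one test.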
LdMetRS: 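Methionyl-tRNA synthetase (putative), Leishmania donovani (UniProt E9BF75). Primary screen of methionyl-tRNA synthetase; the read-out is not stated. The test concentration is not given. Values are per cent inhibition. Of about 68,000 compounds tested this way, about 24 (0.035%) reached 50% or more in at least one test.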
Mtb growth Cornell: 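Whole-cell assay for inhibitors of Mycobacterium tuberculosis growth, labelled Cornell in the record; the read-out is not stated. The concentration is filed as 10 mM, unlikely as a test dose, so the dose is not known. The record gives no direction; compounds strong in two other growth screens of this library score well above the rest, so higher reads as stronger inhibition. About 53,000 compounds were tested under these conditions; 1.7% (about 900) showed 50% or more at least once.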

All values are in %. The controls that fix the scale are not given in the record; negative values are as filed. This is an unselected part of the compounds tested.

Cc1cccc(OC2CCN(C(=O)NCCn3ccnc3)CC2)c1C read Mtb heat-shock: -8.096%; LdMetRS: 8.493%. Result for O=C(c1ccc(F)cc1)N1CC[C@H]2[C@H]1CCN2CC1CC1 was LdMetRS: 3.361%. For Cc1ccoc1C(=O)N1CCC(n2cc(-c3ccsc3)nn2)CC1 the result was Mtb heat-shock: 23.33%; LdMetRS: 18.18%; Mtb growth Cornell: 42.69%. CN1[C@H](Cn2cncn2)C[C@@H]2CN(Cc3cccc(C#N)c3)CC[C@@H]21 read LdMetRS: 17.14%. With COc1cccc(S(=O)(=O)N2C[C@@H](N(C)C)[C@H](C(C)C)C2)c1 the screen gave Mtb heat-shock: -14.77%; LdMetRS: 18.35%; Mtb growth Cornell: 29.73%. For Cn1c(CN2CCC(N3CCNC3=O)CC2)cc(=O)n(C)c1=O the result was Mtb heat-shock: 1.292%; LdMetRS: 17.13%. CNC(=O)[C@H]1C[C@@H]2CN(C(=O)c3ccncc3)C[C@@H]2N1S(C)(=O)=O gave LdMetRS: 6.849%.

Cn1c(=O)c2c(n3ncnc13)NC(=O)CC2c1cccc(F)c1 (stereo unspecified) read Mtb heat-shock: -8.8%; LdMetRS: 13.14%. Result for CC(O)CN1CCN(C(=O)c2ccn(-c3cccc(Cl)c3)n2)CC1 (stereo unspecified) was Mtb heat-shock: -0.5659%; LdMetRS: -0.4049%; Mtb growth Cornell: 0.3459%. For CN(Cc1cccc(C#N)c1)Cn1nc(C(C)(C)C)ccc1=O the result was Mtb heat-shock: -11.75%; LdMetRS: 13.17%. CC1(C(=O)N2CCOCC2)CN(CC2CCOCC2)CCO1 (stereo unspecified) gave Mtb heat-shock: 5.301%; LdMetRS: 15.94%; Mtb growth Cornell: 27.94%. With O=C1CCCN1CCc1nc(-c2ccsc2)no1 the screen gave Mtb heat-shock: -11.15%; LdMetRS: 10.84%; Mtb growth Cornell: 2.411%. Cc1cnn(CC2CCCCN2C(=O)Cn2nc(C)c(Cl)c2C)c1 (stereo unspecified) read Mtb heat-shock: -20.88%; LdMetRS: 16.08%; Mtb growth Cornell: 7.438%. For CC(=O)N1Cc2nccn2CC(CNC(=O)c2ccnnc2)C1 (stereo unspecified) the result was Mtb heat-shock: -4.146%; LdMetRS: 0%; Mtb growth Cornell: 4.311%.

CCNC(=O)N1CC[C@@H](CC(=O)O)[C@@H](CC2=NCCc3ccccc32)C1 read Mtb heat-shock: 14.12%; LdMetRS: 3.846%. COCc1ncc(-c2nccn2CCN(C)C)cn1 read Mtb heat-shock: -0.3449%; LdMetRS: 7.116%; Mtb growth Cornell: -30.93%. CC1(C)OCC2(CO1)CN(C(=O)c1cccc3ccccc13)C2 gave Mtb heat-shock: -2.379%; LdMetRS: 11.51%; Mtb growth Cornell: 23.29%. With Cc1nn(C)c2c(NCCCn3cccn3)nc(C3CC3)nc12 the screen gave Mtb heat-shock: -5.571%; LdMetRS: 1.256%. Cc1nc(C(=O)N2CCN(C(C)c3ccccc3F)CC2)cs1 (stereo unspecified) gave Mtb heat-shock: 16.97%; LdMetRS: -0.8021%. For CC(C)Cc1cc(C(=O)NCC2CCCN(Cc3ccco3)C2)on1 (stereo unspecified) the result was Mtb heat-shock: 16.01%; LdMetRS: 17.42%; Mtb growth Cornell: -11.89%. Result for O=C(O)C(F)(F)F.[H][C@@]12COC[C@@H](C(=O)Nc3cnccn3)[C@]1([H])CN(C1CCC1)C2 was Mtb heat-shock: -19.96%; Mtb growth Cornell: -4.972%.

For CCN(CCO)C[C@@H]1CN(c2nc(C)cc(C)n2)C[C@@H]1CO the result was Mtb heat-shock: -13.33%; LdMetRS: 12.72%; Mtb growth Cornell: 2.073%. CNC(=O)CN(C)S(=O)(=O)c1c(Br)cc2[nH]c(=O)oc2c1Cl gave Mtb heat-shock: 13.22%; LdMetRS: 13.97%. With CN(C)C(=O)CC1CCOc2ccccc21 (stereo unspecified) the screen gave Mtb heat-shock: 7.815%; LdMetRS: 8.635%. O=C(c1ccco1)N1C[C@H]2CCCN(Cc3cccs3)[C@H]2C1 gave LdMetRS: 5.579%. Cc1nc(CN(C)c2nc3c(cnn3C(C)(C)C)c(=O)[nH]2)cs1 read Mtb heat-shock: -16.48%; LdMetRS: 3.039%. Result for [H][C@@]12C[C@H](C(=O)NCC3CC3)CN(Cc3ccoc3)[C@]1([H])CCO2 was Mtb heat-shock: -11.65%; Mtb growth Cornell: -27.48%. O=C(c1ccnnc1)N1CC[C@]2(C[C@H](Oc3ncccc3F)CO2)C1 read LdMetRS: 20.62%.

With CNC(=O)c1cccc(CN2CCC(N(C)Cc3nnc(C)o3)C2)c1 (stereo unspecified) the screen gave Mtb heat-shock: -7.036%; LdMetRS: -2.747%; Mtb growth Cornell: -4.309%. O=C(COC1CCCC1)Nc1ncn(CC(=O)N2CCCCCC2)n1 gave Mtb heat-shock: 3.306%; LdMetRS: 4.211%. With CC(C)CS(=O)(=O)CC(=O)N1CCCC1c1noc(C2CC2)n1 (stereo unspecified) the screen gave Mtb heat-shock: -14.8%; LdMetRS: 9.384%; Mtb growth Cornell: -14.87%. Result for O=C(NCCNc1ncccn1)C1CCCC1 was Mtb heat-shock: -9.544%; LdMetRS: 8.889%; Mtb growth Cornell: -37.65%. With c1cc(-c2n[nH]cc2-c2ccnc(N3CCCCCC3)n2)ccn1 the screen gave Mtb heat-shock: -5.682%; LdMetRS: 14.81%; Mtb growth Cornell: 18.55%. Result for CNC(=O)c1cc2c(nc1NCC1CC1)CCNCC2 was Mtb heat-shock: -5.848%; LdMetRS: -0.5376%; Mtb growth Cornell: -35.83%.

The first 2 entries again:

* Cc1cccc(OC2CCN(C(=O)NCCn3ccnc3)CC2)c1C | Mtb heat-shock: -8.096%; LdMetRS: 8.493%
* O=C(c1ccc(F)cc1)N1CC[C@H]2[C@H]1CCN2CC1CC1 | LdMetRS: 3.361%

Source: ChEMBL document CHEMBL3988442, “University of Dundee, Small-Polar-MMV Screening Library” (2021).